Literature values in patent US20040241049A1, “Elastomeric tools for the fabrication of elastomeric devices and uses thereof” (priority 2003, published 2004).

System: α1-acid glycoprotein, αAGP
Conditions: displacement of quinaldine red from αAGP; stated as known

## CCN(CC)CC(=O)Nc1c(C)cccc1C [lidocaine]
  inhibition of QR/αAGP binding (binder / non-binder): known inhibitors to QR/αAGP binding
